Assay results taken from US20100087406A1, “INDUCTION OF INNATE IMMUNITY BY VITAMIN D3 AND ITS ANALOGS” (CEDARS-SINAI MEDICAL CENTER, priority 2004, published 2010).
For at least one compound, name, drawing or mass did not settle the structure.

Test system: CAMP
Experiment: Induction of CAMP mRNA expression in U937 cells (QRT-PCR, RT-PCR, Northern blot)
Type: cell-based, human
Settings: U937, initial screen, 24 h, QRT-PCR and Northern blot

Question: For `C[C@]12CC[C@@H]3c4ccc(O)cc4CC[C@H]3[C@@H]1CC[C@@H]2O` [estradiol], which “induction of CAMP expression” value is on record?
Answer: Its value is “only 1,25(OH)2D3 induced CAMP expression significantly”.
